The values that follow come from patent publication US5480760A, “Sulfamoyl hydrogen bond donating groups on thermal solvents for image separation systems” (priority 1993, dated 1996).

This data set in a line: heat activated image dye transfer to polymeric dye-receiver layer, Status A densitometry, Examples 5-8 (CD-2 developer). As to conditions: Table IV. Here is the method:
The following eight examples are prepared to examine the ability of materials to effect the transfer of image dye through intervening layers of gelatin binder into a polymeric dye receiver layer and are described by the coating format shown in FIG. 2. The first layer (FIG. 2, layer 14) contains gelatin binder and the material to be tested as a thermal solvent while the upper layer (FIG. 2, layer 16) contains the image generating chemistry comprising a silver chloride emulsion and a dispersion of a dye generating coupler in a gelatin binder. A third, protective overcoat, layer (FIG. 2, layer 15) containing gelatin and hardener is applied over the first two gelatin test layers. Films are exposed through a step tablet, processed in a photographic developer, bleach-fixed, wash, dried at low temperatures. The film thus obtained in referred to as an integral film. In the following examples the film is laminated with unsubbed ESTAR™ and heated by passing through a set of heated rollers to effect transfer of the dye from the gelatin image generating layer to the dye-receiver layer. The image generating layer is removed by protease digestion and warm water wash. These films are referred to as n-pass receiver layers where n is the number of passes through the heated rollers.
Two novel sulfamoyl hydrogen bond donating group containing thermal solvents of our invention (TS-1 and TS-2) for non-aqueous dye diffusion transfer are compared to n-octyl 4-hydroxybenzoate (CS-1) and to a film without additional compounds in the first gelatin layer (FIG. 2 layer 14). [drawing 7]
Thermal Solvent Melt Preparation. To a mixture of 3.90 g of the thermal solvent test compound and 2.40 g of ethyl acetate is added, with stirring, a warm solution consisting of 46.0 g of melted and filtered 7.8% gelatin and 4.3 g of a 10% solution of surfactant-A (Alkanol XC™, DuPont) in 33.4 g of distilled water. This mixture is dispersed by three passes through a Gaulin Dispersion Mill set at a gap of 0.005". […]

Take `CCCCCCCCOC(=O)c1ccc(O)cc1` [CS-1, n-octyl 4-hydroxybenzoate]: the “Obs. Green Density, Integral” value (integral film before transfer) was found to be 2.088. For the same compound, the “Obs. Green Density, 1-pass Rec” value (receiver layer, 1 pass through heated rollers) was determined as 0.658. Further, the “Obs. Green Density, 3-pass Rec.” value (receiver layer, 3 passes through heated rollers) was 0.833.
